Reference: publication PMC4577729, “7-(Pyrazol-4-yl)-3H-imidazo[4,5-b]pyridine-based derivatives for kinase inhibition: Co-crystallisation studies with Aurora-A reveal distinct differences in the orientation of the pyrazole N1-substituent” (Bioorganic & Medicinal Chemistry Letters, 2015)

Test system: 102-/105-kinase panel
Test: Kinase selectivity profiling, whole panel
Type: biochemical

For `Cc1cc(CN2CCN(c3c(Br)cnc4[nH]c(-c5ccc(N6CCN(C)CC6)cc5)nc34)CC2)no1` [Compound 1, reference compound], the Gini coefficient (previously reported inhibitor, panel not stated) was 0.560.
Work on `Cc1nn(C)cc1-c1nc2c(-c3cnn(Cc4ccccc4)c3)c(Cl)cnc2[nH]1` [Compound 7a] yielded a Gini coefficient (102-kinase panel, 1 μM) of 0.273.
With `Cc1cc(Cn2cc(-c3c(Cl)cnc4[nH]c(-c5cn(C)nc5C)nc34)cn2)no1` [Compound 14d] the Gini coefficient (105-kinase panel, 1 μM) was 0.320 and the “number of kinases inhibited by ⩾80%” value (105-kinase panel, 1 μM) was 22.
